According to PubChem BioAssay AID493014 (National Center for Advancing Translational Sciences (NCATS), 2011):
The whole screen tested about 340,000 compounds, of which about 170 (0.05%) were called active. Inconclusive results, whose numbers are uncertain, are shown with a selection of clear calls. The call rests on the fitted dose curve; in most records, active means well fitted inhibition curve with a large enough effect in the signal ratio, with a control signal flat (not every such curve was filed as active); inconclusive means small, poorly fitted or top-dose-only effect, or effect the other way, or a change in a side signal; inactive means flat fitted curve, though single readings scatter; the % refers to the signal ratio. Where the call is inconclusive, the potency comes from a doubtful curve fit.

assay: qHTS Assay to Find Inhibitors of Chronic Active B-Cell Receptor Signaling; settings: ABC-DLBCL IkBa-CBG/CBR reporter, luminescence ratio (green luciferase fused to IkBa over red control in TMD8 lymphoma cells), 4 h; activity change, negative = inhibition: at 46.1 µM (top of the series) unless noted;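 on activity change, negative = inhibition: plate controls were basal doxycycline-induced cells for no effect and cells given 10 µM MG132 for full effect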
Method in brief: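 Doxycycline induced both beetle luciferases in TMD8 lymphoma cells; IKK-driven degradation limits the IkappaBalpha-fused green signal, while red luminescence normalises for cell number and nonspecific effects. Compounds tested up to 46 uM, 4 hrs.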
Potency means the concentration at half of the fitted maximal effect.

SMILES | activity change, negative = inhibition | Potency
CCOC(=O)c1c(NC(=O)CSc2nc3ccccc3[nH]2)sc2c1CC(C)(C)NC2(C)C | inconclusive: -3.67% | 
CC(=O)Cn1cnc2sc(-c3ccccc3)cc2c1=O |  | inconclusive: 18.4 µM [falling, partial curve]
CC1CCCC1/C(=N/O)c1ccccc1 (stereo unspecified) | inactive: -2.05% | 
O=C(O)c1cccc(NC(=O)c2ccc(N3C(=O)c4ccc(C(=O)Nc5cccc(C(=O)O)c5)cc4C3=O)cc2)c1 |  | inconclusive: 2 µM [falling, partial curve, poor fit]
Cc1cccc(NCC(=O)NNC(=S)Nc2ccccc2)c1 | inactive: 4.46% | 
O=C(Nc1ccc(F)cc1)C(Sc1nc2ccccc2[nH]1)c1ccccc1 (stereo unspecified) | inconclusive: 0.442% | 
COc1ccc(NC(=O)C#Cc2ccccc2)cc1 |  | inconclusive: 22.4 µM [falling, single point]
C=CCn1c(NC(=O)c2ccccc2Cl)c(C#N)c2nc3ccccc3nc21 |  | inconclusive: 20 µM [falling, single point]
Cc1ccnc(NC(=O)COc2ccc3c(c2)CCC3)c1 |  | inconclusive: 16.4 µM [falling, single point]
O=C(Nc1ccc2sccc2c1)c1ccc(Cl)s1 |  | inconclusive: 20.6 µM [falling, partial curve]
O=C(NCCc1c[nH]c2ccccc12)c1ccc2c(c1)OCO2 |  | inconclusive: 0.562 µM [falling, full curve, poor fit]
C/C(=N\NC(=O)c1ccc(NS(=O)(=O)c2cccs2)cc1)c1ccccc1 |  | inconclusive: 18.4 µM [falling, single point]
O=C(Nc1ccccc1C(=O)O)c1ccc2ccccc2n1 | inconclusive: 243% | 
COc1ccc(CN2CCN(Cc3ccc(C)cc3)CC2)c(OC)c1 | inconclusive: -1.2% | 
COc1ccc(S(=O)(=O)N(C)CC(=O)NCc2ccco2)cc1OC | inconclusive: -1.4% | 
c1ccc(COc2cccc(CNCc3ccccn3)c2)cc1 | inconclusive: 0.886% | 
CC1(C)CC(=O)c2cc(OCC(=O)N3CCOCC3)ccc2O1 | inactive: -19.1% | 
Cc1nnc(SCC(=O)NC2CC2)s1 | inactive: -2.28% | 
O=C1NCC(O)=C1C=NCCO | inconclusive: 0.314% | 
CCn1c(-c2ccco2)n[nH]c1=S | inactive: 3.03% | 
O=C(O)COc1ccc(S(=O)(=O)N2CCCC2)cc1 | inactive: 3.49% | 

SMILES | activity change, negative = inhibition | Potency
CC1(C)C([N+](=O)[O-])C(c2ccc(Cl)cc2)NC(c2ccc(Cl)cc2)C1[N+](=O)[O-] (stereo unspecified) | inconclusive: 19.5% | 
COc1ccc(-c2ncc(CN3CCN(CCC(C)C)C(CCO)C3)cn2)cc1 (stereo unspecified) | inconclusive: 1.64% | 
CCOC(=O)c1c(C=O)c(C)n(Cc2ccc(Cl)cc2)c1C |  | inconclusive: 29.1 µM [falling, single point]
Oc1ccccc1N1CCN(CC(O)COCc2ccccc2Cl)CC1 (stereo unspecified) | inconclusive: -0.211% | 
CCOc1ccc(-c2nc(-c3ccccc3C)no2)cc1 | inconclusive: 19.4% | 
CC(=O)c1cc(OC(=O)c2ccncc2)ccc1OC(=O)c1ccncc1 | inconclusive: -0.918% | 
O=c1c2cc(Br)cc(Br)c2oc2nc3n(c(=O)c12)CCCS3 | inactive: 13% | 
CCOc1ccc(CNC(=O)CCS(=O)(=O)Cc2ccccc2C)cc1OC | inconclusive: 0.498% | 
CSc1nnc(N2C(=O)C(O)=C(C(=O)c3ccco3)C2c2cccc(Cl)c2)s1 (stereo unspecified) |  | inconclusive: 3.16 µM [falling, single point]
O=C(C1CCCC1)N1CCN=C1SCc1cccc([N+](=O)[O-])c1 | inconclusive: -7.26% | 
CNC(=S)NNC(=O)c1cc(C(C)(C)C)nn1Cc1ccc(F)cc1 |  | inconclusive: 31.6 µM [falling, single point]
CN(C)/C=C/C(=O)c1ccc2noc(-c3ccc(F)cc3)c2c1 |  | inconclusive: 11.2 µM [falling, partial curve, poor fit]
Nc1c(Cl)c(Cl)nc(C(=O)OCC(=O)N2CCCC2=O)c1Cl | inconclusive: 11.2% | 
COc1cc(CNC2CCCC2)cc(Cl)c1OCc1ccc(F)cc1 | inconclusive: 6.26% | 
O=C(NC1CC1)c1cc2cc3ccccc3nc2s1 |  | inconclusive: 35.5 µM [falling, single point]
COc1ccccc1S(=O)(=O)N1CCn2cccc2C1C (stereo unspecified) | inconclusive: 0.365% | 
CC(C)NC(=S)N/N=C/C1=CCC2CC1C2(C)C (stereo unspecified) | inconclusive: 5.1% | 
CC(C)OC(=O)/C(C#N)=C/c1c[nH]c2ccccc12 | inconclusive: 19% | 
CC(C)c1nc(CNC(=O)c2cc(COc3c(F)cccc3F)on2)cs1 |  | inconclusive: 17.8 µM [rising, single point]
O=C(CSc1oc(-c2ccco2)nc1S(=O)(=O)c1ccc(Cl)cc1)NCC1CCCO1 (stereo unspecified) | inactive: -2.41% | 
CC(=O)Nc1sc(N/N=C/c2ccccc2F)nc1-c1ccc(C)cc1 |  | inconclusive: 12.6 µM [falling, partial curve, poor fit]

SMILES | activity change, negative = inhibition | Potency
COc1ccc(OCc2cc(C(=O)N(C)Cc3cnccn3)no2)c(Cl)c1 | inactive: -4.15% | 
Cc1ccc(OCCNC(=O)Cc2ccc(S(=O)(=O)N3CCOCC3)s2)cc1 | inactive: 4.98% | 
Cc1ccc(N2CCN(S(=O)(=O)c3ccc4c(c3)n(C)c(=O)c(=O)n4C)CC2C)cc1 (stereo unspecified) | inconclusive: 0.49% | 
Cc1ccc(C)c(OCC(=O)O/N=C(\N)c2cccc([N+](=O)[O-])c2)c1 | inconclusive: 2.71% | 
O=c1[nH]c2cc3c(cc2cc1CN(CC1CCCO1)S(=O)(=O)c1ccc(Cl)cc1)OCCO3 (stereo unspecified) | inconclusive: 20.3% | 
CCOC(=O)c1c(NC(=O)c2ccccc2Cl)sc2c1CCc1ccccc1-2 | inconclusive: 4.1% | 
CCCCNc1c(-c2ccc(SC3CCCCC3)cc2)nc2ccccn12 |  | inconclusive: 20.6 µM [rising, partial curve, poor fit]
Cc1[nH]c2ccccc2c1C(=O)CSc1ccc(Cl)cc1 | inconclusive: 8.35% | 
O=C(Nc1ccccc1)Nc1ccccc1C(=O)NCCCN1CCOCC1 |  | inconclusive: 22.4 µM [falling, partial curve]
OC1CCCCC1Sc1nc2ccccc2s1 (stereo unspecified) | inconclusive: 2.13% | 
Cc1cc(C)c(NC(=O)c2cc(S(=O)(=O)N3CCCC3)cn2C)c(C)c1 | inconclusive: 4.41% | 
COc1ccc(C2Nc3ccccc3C(=O)N2c2ccc(C)cc2)cc1Cn1nc(C)c([N+](=O)[O-])c1C (stereo unspecified) | inconclusive: 16.6% | 
COc1ccc(CNC(=O)c2cc(-c3cc(C)ccc3O)n[nH]2)cc1 |  | inconclusive: 14.1 µM [falling, partial curve, poor fit]
Cc1nn2c(NCCOCCO)c3c(nc2c1-c1ccccc1)CCC3 | inconclusive: 3.7% | 
COc1ccccc1CNC(=O)c1ccc(CS(=O)(=O)c2ccccc2OC)o1 | inactive: -6.45% | 
COc1ccc(C2CC(c3ccccc3)=NN2C(=O)COC(=O)CNC(=O)c2ccccc2)cc1 (stereo unspecified) | inconclusive: 7.05% | 
O=C(NCc1ccccc1)c1n[nH]nc1-c1ccccc1O |  | inconclusive: 35.5 µM [rising, single point]
Cc1cccc(N=C2NN=C(c3c(C)[nH]c4ccccc34)CS2)c1 |  | inconclusive: 29.1 µM [activator, partial curve, poor fit]
Cn1c(N)c(S(=O)(=O)N2CCN(c3ccccc3F)CC2)c(=O)n(C)c1=O | inconclusive: -1.15% | 
COc1ccc(/C=C2/SC(=S)N(CCCC(=O)Nc3ccccc3C(=O)O)C2=O)cc1 |  | inconclusive: 2.24 µM [falling, partial curve, poor fit]
O=C(CC(=O)N/N=C/c1ccccc1O)NCc1cccnc1 | inactive: 8.07% | 

SMILES | activity change, negative = inhibition | Potency
CN1CCN(Cc2c(O)ccc3occ(C(=O)c4ccccc4)c23)CC1 |  | inconclusive: 9.2 µM [falling, partial curve, poor fit]
CCN(CC)c1nc(-c2ccc(Cl)cc2)cc(C(F)(F)F)c1C#N | inactive: -1.89% | 
CCc1ccc(CNC(=O)c2cc3c(C)nc4ccccc4c3o2)cc1 | inconclusive: 0.022% | 
CNc1ccccc1-n1ccc(-c2ccccc2)n1 | inconclusive: 15.2% | 
CCn1c(SCc2ccc(OC)cc2)nnc1-c1ccncc1 | inconclusive: -10.7% | 
Cc1nc2ncnn2c(C)c1CCC(=O)N1CCc2ccccc21 | inconclusive: -2.77% | 
COc1ccccc1NC(=O)C(=O)NCC(c1ccco1)N1CCc2ccccc21 (stereo unspecified) |  | inconclusive: 9.2 µM [falling, partial curve, poor fit]
CCOc1ccc(NC(=O)c2cccc(OC(=S)N3CCOCC3)c2)cc1 |  | inconclusive: 14.1 µM [falling, single point]
CCCn1c(SCC(=O)NC2CCCCC2)nnc1C1CC1 | inconclusive: -6.07% | 
COc1ccc(CCNC(=O)CCc2cc(OC)c(OC)c(OC)c2)cc1 | inactive: -5.84% | 
CC1CCc2c(sc3ncnc(SCC(=O)c4ccccc4)c23)C1 (stereo unspecified) | inactive: 4.18% | 
O=c1[nH]c(/C(Cl)=C/c2cccc(F)c2)nc2cc(C(F)(F)F)ccc12 | inactive: -2.32% | 
CC(=O)Nc1cccc(C(=O)/C=C/c2ccc(Br)cc2)c1 | inconclusive: 11.1% | 
O=C(COC(=O)c1ccc(N2CCCC2=O)cc1)NCc1ccco1 | inconclusive: -1.92% | 
COC(=O)c1ccc(NC(=O)c2cnc3scc(C)n3c2=O)cc1 | inconclusive: 2.54% | 
COc1ccc(S(=O)(=O)NCC(c2ccco2)S(=O)(=O)c2cccs2)cc1OC (stereo unspecified) |  | inconclusive: 22.4 µM [falling, single point]
CC1Cc2ccccc2N1c1ncnc(N)c1[N+](=O)[O-] (stereo unspecified) | inconclusive: 10.6% | 
C#CCOCCOCCOCCNc1nc(N2CCN(C(=O)CCCCCCCCCCNC(=O)[C@H](CCCN=C(N)N)n3cc(C[C@@H](C)CC)nn3)CC2)nc(N2CCN(C(=O)CCCCCCCCCCNC(=O)[C@@H]([C@H](C)CC)n3cc(CCCCCN)nn3)CC2)n1 | inconclusive: -2.79% | 

3 of the compounds above, tab-delimited.
SMILES	activity change, negative = inhibition	Potency
COc1ccc(CCNC(=O)CCc2cc(OC)c(OC)c(OC)c2)cc1	inactive: -5.84%	
CC1CCc2c(sc3ncnc(SCC(=O)c4ccccc4)c23)C1 (stereo unspecified)	inactive: 4.18%	
O=c1[nH]c(/C(Cl)=C/c2cccc(F)c2)nc2cc(C(F)(F)F)ccc12	inactive: -2.32%	
